# Reference: PubChem BioAssay
# By UniProt entry, the sequences of proteins in these tests, tags left out.
# UniProt P04637, whole entry, looked up: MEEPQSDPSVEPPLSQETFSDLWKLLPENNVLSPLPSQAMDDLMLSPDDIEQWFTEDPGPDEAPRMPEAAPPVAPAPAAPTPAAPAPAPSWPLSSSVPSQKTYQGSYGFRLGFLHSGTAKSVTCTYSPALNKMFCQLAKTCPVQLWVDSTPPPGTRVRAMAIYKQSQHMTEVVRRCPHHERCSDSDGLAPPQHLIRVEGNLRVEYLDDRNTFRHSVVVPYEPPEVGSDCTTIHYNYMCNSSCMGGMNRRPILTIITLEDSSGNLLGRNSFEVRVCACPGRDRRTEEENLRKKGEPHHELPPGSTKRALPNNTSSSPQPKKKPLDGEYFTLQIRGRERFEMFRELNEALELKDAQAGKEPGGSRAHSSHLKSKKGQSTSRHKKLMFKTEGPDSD
# For some assays here: This list holds what a sample rich in hits left over. Only a part is listed here, and it is no random draw. Results filed as inconclusive are left out. Activity calls are given as the source filed them. Cut-off read from the data, not from the text of the source, unless noted: active = inhibition above about 80%; inactive = the rest.
# Legend:
# [1] = growth inhibition of DIPG glioma cells, dose response, cell-based, SU-DIPG-XIII, MIPE5.0, CellTiter-Glo, qHTS (AID 1347064; cut-off not given, nearly all actives have AC50 up to about 23 µM;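 note: cells exposed to compound for 48 hours before the viability read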); conditions: SU-DIPG-XIII viability, CellTiter-Glo ATP luminescence
# [2] = viability loss in pontine glioma line – cell-based, SU-DIPG-XXV, MIPE5.0, CellTiter-Glo, qHTS, dose response (AID 1347065; cut-off not given, nearly all actives have AC50 up to about 26 µM;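 note: cells exposed to compound for 48 hours before ATP readout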); conditions: CellTiter-Glo ATP luminescence
# [3] = JHH-DIPG-1 glioma cell viability, MIPE5.0 library, CellTiter-Glo luminescence, qHTS (AID 1347067; cut-off not given, nearly all actives have AC50 up to about 26 µM;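 note: cells exposed to compound for 48 hours before readout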); conditions: JHH-DIPG-1 glioma viability, CellTiter-Glo ATP luminescence
# [4] = tested on: Hepatitis C virus NS3 helicase; assay: HCV NS3 helicase inhibitors, primary screen, biochemical, fluorescence polarization, LOPAC1280 library (AID 687035; in the data active = inhibition above about 37%); conditions: Purified HCV NS3 helicase, Cy5-dT15 ssDNA binding fluorescence polarization; stronger effect = higher value; concentration not given here
# [5] = Cy5 fluorescence quenching or enhancement artefacts, artefact control for HCV NS3 helicase inhibitor project, biochemical, LOPAC1280 (AID 687037; call rule not given here); conditions: Cy5-DNA-NS3h complex fluorescence interference counterscreen
# [6] = target: Cellular tumor antigen p53 (Homo sapiens) (UniProt P04637); assay: kinase inhibitors altering GFP-p53 stability in HPV16-positive cells, imaging, known kinase inhibitor set, EGFP/DsRed ratio (AID 1053116; call rule not given here;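 note: cells exposed to compounds for 24 h at 37 °C before reading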); conditions: stronger effect = higher value; EGFP object count: measured here: GFP-p53 positive objects count
# [7] = LFS_MB_P medulloblastoma growth inhibition, cell-based, chromothripsis tumors, cisplatin or BGB combos (AID 1671449); conditions: LFS_MB_P medulloblastoma cells;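 note: cells exposed for 96 hours; 0% = vehicle DMSO and 100% = killing by high DMSO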
# [8] = HDN33 neuroblastoma growth inhibition, cell-based, chromothripsis tumors, cisplatin or BGB combos (AID 1671450); conditions: HDN33 neuroblastoma cells, stronger effect = higher value;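 note: cells exposed to compound for four days; 0% = vehicle DMSO and 100% = cell killing by high DMSO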
# [9] = ICB984 medulloblastoma cell growth inhibition, synergistic combos for chromothripsis tumors, cisplatin or BGB combos (AID 1671451; call rule not given here;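 note: cells exposed for 96 hours before readout; 0% = vehicle DMSO and 100% = killing by high DMSO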); conditions: ICB984 medulloblastoma cells, drug combinations, stronger effect = higher value
# [10] = LFS_MB_1R medulloblastoma cell growth inhibition, synergistic combos for chromothripsis tumors, cisplatin or BGB combos (AID 1671452); conditions: LFS_MB_1R medulloblastoma cells, stronger effect = higher value;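 note: cells exposed for 96 hours before readout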
# [11] = HTB85 osteosarcoma cell growth inhibition, synergistic combos for chromothripsis tumors, BGB or cisplatin IC20 combos (AID 1671453); conditions: HTB85 osteosarcoma cells, drug combinations, stronger effect = higher value;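 note: cells exposed for 96 hours before readout; 0% = vehicle DMSO and 100% = high DMSO killing control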
# [12] = CRL2098 osteosarcoma cell growth inhibition, synergistic combos for chromothripsis tumors, BGB or cisplatin IC20 combos (AID 1671454); conditions: CRL2098 osteosarcoma cells, drug combinations, stronger effect = higher value;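 note: cells exposed for 96 h before readout; 0% = vehicle DMSO and 100% = killing by high DMSO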
# [13] = HD-MB03 medulloblastoma cell growth inhibition, synergistic combos for chromothripsis tumors, BGB or cisplatin IC20 combos (AID 1671455; in the data active = inhibition above about 83%;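 note: 0% = vehicle DMSO and 100% = high DMSO as cytotoxic control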); conditions: HD-MB03 medulloblastoma cells, stronger effect = higher value
# [14] = UWB1.289 ovarian carcinoma cell growth inhibition, synergistic combos for chromothripsis tumors, BGB or cisplatin combos (AID 1671456); conditions: UWB1.289 ovarian carcinoma cells, stronger effect = higher value;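 note: cells exposed to compound for four days; 0% = vehicle DMSO and 100% = killing by high DMSO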
# [15] = LFS_MB_2R medulloblastoma cell growth inhibition, synergistic combos for chromothripsis tumors, cisplatin combos (AID 1671457); conditions: LFS_MB_2R medulloblastoma cells, stronger effect = higher value;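 note: cells exposed to compound for four days before readout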
# [16] = MDA-MB-436 breast carcinoma cell growth inhibition, synergistic combos for chromothripsis tumors, BGB or cisplatin combos (AID 1671458; call rule not given here;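 note: cells exposed for 96 hours; 0% = vehicle DMSO and 100% = killing by high DMSO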); conditions: MDA-MB-436 breast carcinoma growth inhibition, drug combinations, stronger effect = higher value
# [17] = UWB1.289_BRCA1 ovarian cancer growth, cell-based, BGB or cisplatin combinations (AID 1671459); conditions: UWB1.289 BRCA1 ovarian carcinoma, drug combinations, stronger effect = higher value
# [18] = human astrocyte viability loss, single and combined drugs, cytotoxicity control for chromothriptic childhood tumor combination screen, cell-based, BGB or cisplatin IC20 combos (AID 1671460); conditions: Human astrocytes, drug combinations, stronger effect = higher value;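 note: cells exposed to compounds for 96 hours before viability readout; 0% = vehicle and 100% = killing control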
# [19] = growth inhibition of BT084 medulloblastoma cells, cell-based, ICGC_MB145, cisplatin and BGB IC40 combos (AID 1671461); conditions: drug combinations, stronger effect = higher value;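 note: cells exposed to drugs for 96 hours; 0% = vehicle DMSO and 100% = high DMSO full killing control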
# [20] = growth inhibition of RCMB18 medulloblastoma cells, cell-based, cisplatin and BGB IC40 combos (AID 1671462); conditions: stronger effect = higher value;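 note: cells exposed to compound for four days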
# [21] = growth inhibition of CRL1545 osteosarcoma cells, cell-based, cisplatin and BGB IC20 combos (AID 1671464); conditions: stronger effect = higher value;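 note: cells exposed to compound for 96 hours before readout; 0% = vehicle DMSO and 100% = high DMSO killing control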
# [22] = measured here: combination with BGB IC40, at 0.05 µM
# [23] = measured here: with BGB IC20 combination, at 0.5 µM
# [24] = measured here: with cisplatin IC20 combination, at 0.5 µM
# [25] = measured here: combination with cisplatin, at 0.5 µM
# [26] = measured here: combination with cisplatin, at 5 µM
smiles,measurement,setting,value
COc1cc(N2CCN(C(C)=O)CC2)ccc1Nc1ncc(Cl)c(Nc2ccc(N3CCN(C(C)=O)CC3)cc2OC)n1,AC50,[1],active: 3.32 µM
same,AC50,[2],active: 1.66 µM
same,AC50,[3],active: 5.9 µM
CN1C2CCC1CC(OC(=O)C(O)c1ccccc1)C2 (configuration not stated),inhibition,[4],inactive: -3%
same,fluorescence ratio (interference),[5],inactive: 1
CC(C)(C)c1ccc(Oc2nccc(-c3c(-c4ccc(F)cc4)ncn3C3CCNCC3)n2)cc1,EGFP object count,[6],8.5
same,EGFP/DsRed ratio,[6],inactive: 0.206
O=C(O)c1ccc(Oc2nccc(-c3c(-c4ccc(F)cc4)ncn3C3CCNCC3)n2)cc1,EGFP object count,[6],6.5
same,EGFP/DsRed ratio,[6],inactive: 0.181
Cc1ccc(C(=O)NCCCCCC(=O)Nc2ccccc2N)cc1,inhibition,"[7]; at 0.5 µM, stronger effect = higher value",inactive: -24%
same,inhibition,"[7]; measured here: combination with BGB IC20, at 0.005 µM",-13.9%
same,inhibition,"[7]; measured here: combination with BGB IC40, at 0.005 µM",-24.7%
same,inhibition,[7]; [22],-44.7%
same,inhibition,"[7]; measured here: combination with cisplatin, at 0.5 µM, stronger effect = higher value",-33.9%
same,inhibition,"[7]; measured here: combination with cisplatin, at 5 µM, stronger effect = higher value",106%
same,inhibition,"[8]; BGB combo, at 5 µM",55.8%
same,inhibition,[8]; at 0.5 µM,inactive: -17%
same,inhibition,"[8]; cisplatin combo, at 5 µM",62.7%
same,inhibition,[8]; [23],-30.5%
same,inhibition,[8]; [24],-14.4%
same,inhibition,"[8]; single agent, at 5 µM",48.8%
same,inhibition,"[9]; BGB IC20 combo, at 0.005 µM",-22%
same,inhibition,"[9]; BGB IC40 combo, at 0.005 µM",-28.1%
same,inhibition,"[9]; BGB IC40 combo, at 0.05 µM",36.4%
same,inhibition,[9]; at 0.5 µM,inactive: -33.8%
same,inhibition,"[9]; cisplatin combo, at 0.05 µM",34.1%
same,inhibition,"[9]; cisplatin combo, at 0.5 µM",-38.9%
same,inhibition,"[9]; cisplatin combo, at 5 µM",-14.8%
same,inhibition,"[9]; measured here: 5 uM single agent, at 5 µM",-7.87%
same,inhibition,[10]; at 0.5 µM,inactive: -4.96%
same,inhibition,[10]; [22],-44.2%
same,inhibition,[10]; [25],-4.88%
same,inhibition,[10]; [26],77%
same,inhibition,[11]; at 0.5 µM,inactive: -10.9%
same,inhibition,"[11]; measured here: with BGB IC20, at 0.5 µM",-24.1%
same,inhibition,"[11]; measured here: with BGB IC20, at 5 µM",31.4%
same,inhibition,"[11]; measured here: with cisplatin IC20, at 0.5 µM",6.35%
same,inhibition,"[11]; measured here: with cisplatin IC20, at 5 µM",73.8%
same,inhibition,"[11]; single agent, at 5 µM",29.5%
same,inhibition,[12]; at 0.5 µM,inactive: -59.8%
same,inhibition,"[12]; measured here: combination with BGB at IC20, at 0.5 µM",-33.7%
same,inhibition,"[12]; measured here: combination with cisplatin at IC20, at 0.5 µM",-83.3%
same,inhibition,[13]; at 0.5 µM,inactive: -1.07%
same,inhibition,"[13]; measured here: combo with BGB at IC20, at 0.5 µM",-8.03%
same,inhibition,"[13]; measured here: combo with cisplatin at IC20, at 0.5 µM",12.1%
same,inhibition,[14]; at 0.5 µM,inactive: 1.95%
same,inhibition,"[14]; measured here: inhibition with BGB combination, at 0.05 µM",-20.2%
same,inhibition,"[14]; measured here: inhibition with cisplatin combination, at 0.05 µM",-13.3%
same,inhibition,[15]; at 0.5 µM,inactive: -13.9%
same,inhibition,[15]; [25],-4.39%
same,inhibition,[15]; [26],69.8%
same,inhibition,[16]; at 0.5 µM,inactive: -15.7%
same,inhibition,"[16]; measured here: BGB combination, at 0.5 µM",-23.1%
same,inhibition,"[16]; measured here: BGB combination, at 5 µM",24.4%
same,inhibition,"[16]; measured here: cisplatin combination, at 0.5 µM",-20.6%
same,inhibition,"[16]; measured here: cisplatin combination, at 5 µM",34.8%
same,inhibition,"[17]; BGB combination, concentration series, at 5 µM",58%
same,inhibition,[17]; at 0.5 µM,inactive: -4.8%
same,inhibition,"[17]; cisplatin combination, concentration series, at 5 µM",64.8%
same,inhibition,[18]; at 0.5 µM,inactive: -10.8%
same,inhibition,"[18]; measured here: combo with BGB IC20, at 0.5 µM",-18.9%
same,inhibition,"[18]; measured here: combo with cisplatin IC20, at 0.5 µM",-6.7%
same,inhibition,[19]; at 0.5 µM,inactive: 32.2%
same,inhibition,"[19]; cisplatin combination, at 0.5 µM",12.1%
same,inhibition,"[19]; cisplatin combination, at 5 µM",95.2%
same,inhibition,"[19]; measured here: BGB IC40 combination 0.05 uM, at 0.05 µM",39.8%
same,inhibition,"[19]; single agent, at 5 µM",52.6%
same,inhibition,[20]; at 0.5 µM,inactive: 27%
same,inhibition,"[20]; cisplatin combo, at 5 µM",84.1%
same,inhibition,"[20]; measured here: BGB IC40 combination, at 0.05 µM",1.43%
same,inhibition,[20]; [25],58.4%
same,inhibition,"[20]; single agent, at 5 µM",63.8%
same,inhibition,[21]; at 0.5 µM,inactive: 4.28%
same,inhibition,[21]; [23],-20.4%
same,inhibition,[21]; [24],15.3%
same,inhibition,"[21]; single agent, at 0.05 µM",22.8%
same,inhibition,"[21]; single agent, at 5 µM",31.2%
